# Source: the supplement of paper PMC8728848
# The other results are listed elsewhere or left out.
# B1: Gal 12 (Homo sapiens), Q96DT0 (protein)
# chain: MSQPSGGRAPGTRIYSWSCPTVMSPGEKLDPIPDSFILQPPVFHPVVPYVTTIFGGLHAGKMVMLQGVVPLDAHRFQVDFQCGCSLCPRPDIAFHFNPRFHTTKPHVICNTLHGGRWQREARWPHLALRRGSSFLILFLFGNEEVKVSVNGQHFLHFRYRLPLSHVDTLGIFGDILVEAVGFLNINPFVEGSREYPAGHPFLLMSPRLEVPCSHALPQGLSPGQVIIVRGLVLQEPKHFTVSLRDQAAHAPVTLRASFADRTLAWISRWGQKKLISAPFLFYPQRFFEVLLLFQEGGLKLALNGQGLGATSMNQQALEQLRELRISGSVQLYCVHS
# Experiments:
# Assay in all cases: glycan array binding signal (z-score within array); higher = stronger binding
# Settings in all cases: glycan notation: IUPAC condensed, linker removed
# [1] = target: GlcNAc(b1-3)Gal(b1-4)GlcNAc(b1-3)Gal(b1-4)GlcNAc(b1-3)GalNAc
# Outline: (§1)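 Columns mapping to the same glycan were averaged after glycan names were converted to IUPAC-condensed notation. The data come from 3228 arrays in the Consortium for Functional Glycomics database, limited to those with an available protein sequence. Binding is reported as a within-array Z-score averaged across arrays of one protein sequence and across linkers.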
# [2] = target: GlcNAc(b1-3)Gal(b1-4)GlcNAc(b1-3)GalNAc
# Outline: as §1
# [3] = target: GlcNAc(b1-3)Gal(b1-4)GlcNAc(b1-3)[GlcNAc(b1-3)Gal(b1-4)GlcNAc(b1-3)]GalNAc
# Outline: as §1
# [4] = target: GlcNAc(b1-3)Gal(b1-4)GlcNAc(b1-6)[Gal(b1-3)]GalNAc
# Outline: as §1
# [5] = target: GlcNAc(b1-3)Gal(b1-4)GlcNAc(b1-6)[GlcNAc(b1-3)Gal(b1-3)]GalNAc
# Outline: as §1
# [6] = target: GlcNAc(b1-3)Gal(b1-4)GlcNAc(b1-6)[GlcNAc(b1-3)]Gal(b1-4)GlcNAc
# Outline: as §1
# [7] = target: GlcNAc(b1-3)GalNAc
# Outline: as §1
# [8] = target: GlcNAc(b1-3)Man
# Outline: as §1
# [9] = target: GlcNAc(b1-3)[GlcNAc(b1-4)][GlcNAc(b1-6)]GlcNAc
# Outline: as §1
# [10] = target: GlcNAc(b1-3)[GlcNAc(b1-6)]Gal(b1-4)GlcNAc
# Outline: as §1
# [11] = target: GlcNAc(b1-3)[GlcNAc(b1-6)]GalNAc
# Outline: as §1
# [12] = target: GlcNAc(b1-4)Gal(b1-4)GlcNAc
# Outline: as §1
# [13] = target: GlcNAc(b1-4)GlcNAc
# Outline: as §1
# [14] = target: GlcNAc(b1-4)GlcNAc(b1-4)GlcNAc
# Outline: as §1
# [15] = target: GlcNAc(b1-4)GlcNAc(b1-4)GlcNAc(b1-4)GlcNAc(b1-4)GlcNAc
# Outline: as §1
# [16] = target: GlcNAc(b1-4)GlcNAc(b1-4)GlcNAc(b1-4)GlcNAc(b1-4)GlcNAc(b1-4)GlcNAc
# Outline: as §1
# [17] = target: GlcNAc(b1-4)[GlcNAc(b1-6)]GalNAc
# Outline: as §1
# [18] = target: GlcNAc(b1-6)Gal(b1-4)GlcNAc
# Outline: as §1
# [19] = target: GlcNAc(b1-6)GalNAc
# Outline: as §1
# [20] = target: GlcNAc3Prop(b1-4)GlcNAc
# Outline: as §1
# [21] = target: GlcNAc6S(b1-3)Gal(b1-4)GlcNAc
# Outline: as §1
# [22] = target: Kdn(a2-3)Gal(b1-3)GalNAc
# Outline: as §1
# [23] = target: Kdn(a2-3)Gal(b1-3)GlcNAc
# Outline: as §1
# [24] = target: Kdn(a2-3)Gal(b1-4)Glc
# Outline: as §1
# [25] = target: Kdn(a2-3)Gal(b1-4)GlcNAc
# Outline: as §1
# [26] = target: Kdn(a2-3)Gal(b1-4)[Fuc(a1-3)]GlcNAc
# Outline: as §1
# [27] = target: Kdn(a2-6)Gal(b1-4)GlcNAc
# Outline: as §1
# [28] = target: Man(a1-2)Man(a1-2)Man(a1-3)Man
# Outline: as §1
# [29] = target: Man(a1-2)Man(a1-2)Man(a1-6)[Man(a1-3)]Man
# Outline: as §1
# [30] = target: Man(a1-2)Man(a1-3)Man
# Outline: as §1
# [31] = target: Man(a1-2)Man(a1-3)[Man(a1-2)Man(a1-6)]Man
# Outline: as §1
# [32] = target: Man(a1-2)Man(a1-3)[Man(a1-2)Man(a1-6)]Man(a1-6)[Man(a1-2)Man(a1-2)Man(a1-3)]Man
# Outline: as §1
# [33] = target: Man(a1-2)Man(a1-3)[Man(a1-2)Man(a1-6)]Man(a1-6)[Man(a1-2)Man(a1-2)Man(a1-3)]Man(b1-4)GlcNAc(b1-4)GlcNAc
# Outline: as §1
# [34] = target: Man(a1-2)Man(a1-3)[Man(a1-6)]Man(a1-6)[Man(a1-2)Man(a1-3)]Man(b1-4)GlcNAc(b1-4)GlcNAc
# Outline: as §1
# [35] = target: Man(a1-2)Man(a1-6)[Man(a1-3)]Man(a1-6)[Man(a1-2)Man(a1-2)Man(a1-3)]Man
# Outline: as §1
# [36] = target: Man(a1-2)Man(a1-6)[Man(a1-3)]Man(a1-6)[Man(a1-2)Man(a1-2)Man(a1-3)]Man(b1-4)GlcNAc(b1-4)GlcNAc
# Outline: as §1
# [37] = target: Man(a1-3)[Man(a1-6)]Man
# Outline: as §1
binder,measurement,setting,value
B1,glycan array binding signal (z-score),[1],-1.01
same,glycan array binding signal (z-score),[2],1.33
same,glycan array binding signal (z-score),[3],0.083
same,glycan array binding signal (z-score),[4],-1.26
same,glycan array binding signal (z-score),[5],0.418
same,glycan array binding signal (z-score),[6],-0.202
same,glycan array binding signal (z-score),[7],-0.05
same,glycan array binding signal (z-score),[8],-0.675
same,glycan array binding signal (z-score),[9],-0.381
same,glycan array binding signal (z-score),[10],-0.57
same,glycan array binding signal (z-score),[11],0.229
same,glycan array binding signal (z-score),[12],-0.381
same,glycan array binding signal (z-score),[13],-0.245
same,glycan array binding signal (z-score),[14],-0.755
same,glycan array binding signal (z-score),[15],-0.139
same,glycan array binding signal (z-score),[16],-0.121
same,glycan array binding signal (z-score),[17],-0.179
same,glycan array binding signal (z-score),[18],-0.449
same,glycan array binding signal (z-score),[19],-0.381
same,glycan array binding signal (z-score),[20],-0.523
same,glycan array binding signal (z-score),[21],-0.81
same,glycan array binding signal (z-score),[22],0.39
same,glycan array binding signal (z-score),[23],-0.015
same,glycan array binding signal (z-score),[24],-0.515
same,glycan array binding signal (z-score),[25],0.085
same,glycan array binding signal (z-score),[26],0.163
same,glycan array binding signal (z-score),[27],0.085
same,glycan array binding signal (z-score),[28],0.037
same,glycan array binding signal (z-score),[29],-0.598
same,glycan array binding signal (z-score),[30],-0.449
same,glycan array binding signal (z-score),[31],0.131
same,glycan array binding signal (z-score),[32],-0.563
same,glycan array binding signal (z-score),[33],-0.503
same,glycan array binding signal (z-score),[34],0.672
same,glycan array binding signal (z-score),[35],-0.43
same,glycan array binding signal (z-score),[36],0.431
same,glycan array binding signal (z-score),[37],-0.487

# Part of the list above, as tab-separated lines.
binder	measurement	setting	value
B1	glycan array binding signal (z-score)	[29]	-0.598
same	glycan array binding signal (z-score)	[30]	-0.449
same	glycan array binding signal (z-score)	[31]	0.131
